The target in assay [1] is HA-tagged VHL (UniProt P40337). Kind of assay: co-IP; reverse IP: HA-VHL precipitated, Flag-Daam2 detected; protein lysates from the PB-Ras model of glioma.
Assay [2] deals with Flag-tagged Daam2 (UniProt Q80U19). Kind of assay: co-IP; immunoprecipitation of Flag-Daam2 from lysates of PB-Ras mouse glioma overexpressing Flag-Daam2; immunoblot with VHL antibody. On the technique in general: In western blotting, separated proteins are transferred to a membrane and probed.

Amino acid sequences for entries named in this document (tags omitted).
UniProt P40337: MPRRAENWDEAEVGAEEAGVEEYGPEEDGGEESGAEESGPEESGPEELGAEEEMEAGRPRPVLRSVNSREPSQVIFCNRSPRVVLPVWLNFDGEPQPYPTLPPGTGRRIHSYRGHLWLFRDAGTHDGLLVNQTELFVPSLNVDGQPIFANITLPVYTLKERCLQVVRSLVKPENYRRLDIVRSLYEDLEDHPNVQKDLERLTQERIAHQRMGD
UniProt Q80U19: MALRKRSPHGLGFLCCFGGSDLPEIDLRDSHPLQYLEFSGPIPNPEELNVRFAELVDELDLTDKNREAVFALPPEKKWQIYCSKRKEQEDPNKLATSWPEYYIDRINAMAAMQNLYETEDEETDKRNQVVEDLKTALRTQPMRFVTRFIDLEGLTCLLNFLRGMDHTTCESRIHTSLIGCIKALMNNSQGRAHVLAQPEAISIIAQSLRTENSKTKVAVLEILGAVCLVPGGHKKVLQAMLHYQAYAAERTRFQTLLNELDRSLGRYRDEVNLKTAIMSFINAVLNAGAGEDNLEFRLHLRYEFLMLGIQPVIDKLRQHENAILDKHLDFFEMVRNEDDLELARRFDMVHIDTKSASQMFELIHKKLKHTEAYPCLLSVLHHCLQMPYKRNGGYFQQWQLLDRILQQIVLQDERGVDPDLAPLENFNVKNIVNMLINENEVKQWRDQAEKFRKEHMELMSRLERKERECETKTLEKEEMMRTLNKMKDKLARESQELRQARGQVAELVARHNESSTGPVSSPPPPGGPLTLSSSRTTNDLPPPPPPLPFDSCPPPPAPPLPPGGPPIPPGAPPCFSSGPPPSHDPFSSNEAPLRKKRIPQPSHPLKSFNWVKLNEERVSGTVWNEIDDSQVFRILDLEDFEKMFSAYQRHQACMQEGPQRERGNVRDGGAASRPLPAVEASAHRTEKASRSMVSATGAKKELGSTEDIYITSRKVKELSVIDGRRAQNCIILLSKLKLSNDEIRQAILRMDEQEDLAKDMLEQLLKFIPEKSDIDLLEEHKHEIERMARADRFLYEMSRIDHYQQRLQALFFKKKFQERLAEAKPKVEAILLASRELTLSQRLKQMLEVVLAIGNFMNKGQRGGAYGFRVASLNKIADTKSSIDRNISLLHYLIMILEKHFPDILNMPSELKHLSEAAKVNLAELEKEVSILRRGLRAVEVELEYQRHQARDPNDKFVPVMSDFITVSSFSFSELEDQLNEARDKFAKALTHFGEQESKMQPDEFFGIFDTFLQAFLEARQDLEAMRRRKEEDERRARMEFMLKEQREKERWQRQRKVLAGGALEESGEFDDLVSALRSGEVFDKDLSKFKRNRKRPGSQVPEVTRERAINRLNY
UniProt P40338: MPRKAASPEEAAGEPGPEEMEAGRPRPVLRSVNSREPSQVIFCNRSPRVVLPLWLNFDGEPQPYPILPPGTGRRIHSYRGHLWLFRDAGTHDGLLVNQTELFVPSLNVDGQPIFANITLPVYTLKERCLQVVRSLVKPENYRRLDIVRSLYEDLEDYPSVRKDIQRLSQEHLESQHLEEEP

No constants are given. Whether binding was seen depends on the method and setting. Binding seen in cells or lysates may run through a third protein. Some binding calls cover weakened binding; strength is not graded here.

Turning to “Flag-tagged Daam2 (from UniProt Q80U19 1-1115)”, the binding entry in assay [1] is “binds”.

Consider “endogenous VHL (from UniProt P40338 1-181)”, for which the binding entry in assay [2] is recorded as “binds”.

(Values after publication PMC5650470.)
